The text below walks through data of patent US20230070181A1.

Sequences of proteins named here, by UniProt entry; tags and fusion partners are left off. Residues count along the entry.
UniProt Q96KQ7, residues 2-1210: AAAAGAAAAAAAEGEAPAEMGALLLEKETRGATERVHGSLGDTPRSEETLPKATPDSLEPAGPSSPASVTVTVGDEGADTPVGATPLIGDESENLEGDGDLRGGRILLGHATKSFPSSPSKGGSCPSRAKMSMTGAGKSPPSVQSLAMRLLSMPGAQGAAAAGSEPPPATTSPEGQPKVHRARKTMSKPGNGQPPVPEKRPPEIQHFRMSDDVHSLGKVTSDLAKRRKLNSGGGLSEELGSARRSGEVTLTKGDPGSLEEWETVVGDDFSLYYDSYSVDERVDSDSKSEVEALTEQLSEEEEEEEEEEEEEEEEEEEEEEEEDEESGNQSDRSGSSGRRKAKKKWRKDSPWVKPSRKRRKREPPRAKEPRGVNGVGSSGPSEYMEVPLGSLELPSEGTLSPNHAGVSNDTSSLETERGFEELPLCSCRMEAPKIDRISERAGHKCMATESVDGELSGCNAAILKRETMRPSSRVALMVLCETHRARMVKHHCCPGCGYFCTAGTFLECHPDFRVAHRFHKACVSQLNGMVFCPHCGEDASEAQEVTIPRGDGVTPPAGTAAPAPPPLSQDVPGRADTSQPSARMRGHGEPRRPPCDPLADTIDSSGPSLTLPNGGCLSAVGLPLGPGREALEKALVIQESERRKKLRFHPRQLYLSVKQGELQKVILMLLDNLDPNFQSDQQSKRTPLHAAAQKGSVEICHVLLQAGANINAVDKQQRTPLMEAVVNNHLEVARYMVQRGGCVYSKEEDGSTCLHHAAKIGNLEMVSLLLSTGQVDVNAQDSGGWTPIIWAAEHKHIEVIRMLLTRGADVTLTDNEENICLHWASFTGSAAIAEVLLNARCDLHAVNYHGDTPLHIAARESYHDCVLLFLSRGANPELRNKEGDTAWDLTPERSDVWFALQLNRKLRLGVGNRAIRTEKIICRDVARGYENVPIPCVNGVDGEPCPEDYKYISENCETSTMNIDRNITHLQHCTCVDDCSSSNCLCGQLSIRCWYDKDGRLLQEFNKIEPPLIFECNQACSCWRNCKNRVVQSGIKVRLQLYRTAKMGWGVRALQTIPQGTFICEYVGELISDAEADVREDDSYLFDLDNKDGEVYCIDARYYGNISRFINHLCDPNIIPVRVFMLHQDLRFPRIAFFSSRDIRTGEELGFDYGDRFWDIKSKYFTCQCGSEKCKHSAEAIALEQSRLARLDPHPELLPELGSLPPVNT

The target in the experiment is T1, Chromodomain on Y-like 2 (CDYL2), endogenous protein in MCF7 / HEK293T cell lysates (human) (UniProt Q8N8U2).
T1 sequence: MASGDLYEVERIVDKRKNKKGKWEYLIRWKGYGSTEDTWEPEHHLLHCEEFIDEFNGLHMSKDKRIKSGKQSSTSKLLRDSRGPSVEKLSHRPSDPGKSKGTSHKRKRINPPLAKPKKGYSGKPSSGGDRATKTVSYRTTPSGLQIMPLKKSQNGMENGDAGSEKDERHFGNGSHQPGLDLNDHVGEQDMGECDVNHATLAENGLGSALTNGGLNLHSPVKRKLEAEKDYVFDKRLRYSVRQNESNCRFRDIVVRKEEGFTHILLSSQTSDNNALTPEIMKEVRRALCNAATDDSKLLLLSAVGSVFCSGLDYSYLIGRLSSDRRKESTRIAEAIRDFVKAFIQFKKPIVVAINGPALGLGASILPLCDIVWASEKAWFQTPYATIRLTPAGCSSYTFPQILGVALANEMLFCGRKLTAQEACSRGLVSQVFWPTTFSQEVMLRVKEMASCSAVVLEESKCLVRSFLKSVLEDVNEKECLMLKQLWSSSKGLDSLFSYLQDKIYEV
Description: reciprocal co-immunoprecipitation (G9a IP) from MCF7 lysates, immunoblot.

No constants are given. Whether binding was seen depends on the method and setting. Binding seen in cells or lysates may run through a third protein. Some results given as binding are weak or reduced against the parent protein; the word gives no strength.

As for “histone methyltransferase G9a (H3K9 methyltransferase G9a/EHMT2), endogenous in MCF7 lysates (from UniProt Q96KQ7 2-1210) (enzyme)”, the binding entry was “binds”.
